Assay [1] deals with RNF13 (co-IP with STING, Supplementary Fig. 6a) (UniProt O43567). Put plainly: co-IP; cells transfected with the indicated plasmids for 24 h (HEK293T in Fig. 9b); IP lysis buffer 20 mM Tris-HCl pH 7.4, 150 mM NaCl, 1 mM EDTA, 1% NP-40; protein A/G agarose beads and primary antibody at 4 °C overnight; washed with buffer containing 150 mM or 300 mM NaCl; immunoblot. On the technique in general: Immunoblotting shows a protein as a band on a membrane.

Protein sequences, listed by entry. Tags and fused reporters are not part of them. Residues count along the entry.
UniProt O43567, residues 35-381: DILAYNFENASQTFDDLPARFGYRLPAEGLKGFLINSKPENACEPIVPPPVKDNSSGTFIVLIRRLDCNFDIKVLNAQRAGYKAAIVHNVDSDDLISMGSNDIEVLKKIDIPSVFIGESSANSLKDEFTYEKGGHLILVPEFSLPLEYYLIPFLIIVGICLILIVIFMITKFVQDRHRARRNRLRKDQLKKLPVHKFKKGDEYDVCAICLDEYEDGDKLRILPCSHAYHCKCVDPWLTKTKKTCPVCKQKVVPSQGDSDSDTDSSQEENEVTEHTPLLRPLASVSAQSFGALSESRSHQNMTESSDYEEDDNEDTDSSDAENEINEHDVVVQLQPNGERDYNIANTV
UniProt Q86WV6: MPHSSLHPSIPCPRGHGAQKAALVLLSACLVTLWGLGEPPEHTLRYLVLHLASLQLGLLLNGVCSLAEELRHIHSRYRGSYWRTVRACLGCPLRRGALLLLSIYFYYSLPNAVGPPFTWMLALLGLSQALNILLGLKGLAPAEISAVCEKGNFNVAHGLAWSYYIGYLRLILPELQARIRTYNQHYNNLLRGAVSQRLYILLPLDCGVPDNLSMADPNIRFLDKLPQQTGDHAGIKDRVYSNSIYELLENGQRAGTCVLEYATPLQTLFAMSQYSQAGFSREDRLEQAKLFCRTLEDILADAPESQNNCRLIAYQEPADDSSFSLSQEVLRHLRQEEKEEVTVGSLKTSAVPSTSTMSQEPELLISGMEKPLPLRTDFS

Assay [2] has as its target HA-RNF13 (RING finger protein 13) (UniProt O43567). The assay is described as above.
The target in assay [3] is RNF13 (in vitro pull-down, Supplementary Fig. 6d) (UniProt O43567). Put plainly: pull-down; in vitro pull-down analysis (Supplementary Fig. 6d); not described in the methods.

Results are given in words; binding and its absence hold for the method and conditions named. In cells and extracts the contact can be indirect. Some results given as binding are weak or reduced against the parent protein; the word gives no strength. For part of these data: Sequences can lack the tags named with a protein.

In the case of “STING (co-IP with RNF13, Supplementary Fig. 6a; interaction with TRIM29, Supplementary Fig. 7a) (from UniProt Q86WV6 1-379)”, the binding result in assay [1] was “no binding”.

B1: Flag-TRIM29 (tripartite motif-containing 29) (protein, UniProt Q14134 1-588)
chain: MEAADASRSNGSSPEARDARSPSGPSGSLENGTKADGKDAKTTNGHGGEAAEGKSLGSALKPGEGRSALFAGNEWRRPIIQFVESGDDKNSNYFSMDSMEGKRSPYAGLQLGAAKKPPVTFAEKGELRKSIFSESRKPTVSIMEPGETRRNSYPRADTGLFSRSKSGSEEVLCDSCIGNKQKAVKSCLVCQASFCELHLKPHLEGAAFRDHQLLEPIRDFEARKCPVHGKTMELFCQTDQTCICYLCMFQEHKNHSTVTVEEAKAEKETELSLQKEQLQLKIIEIEDEAEKWQKEKDRIKSFTTNEKAILEQNFRDLVRDLEKQKEEVRAALEQREQDAVDQVKVIMDALDERAKVLHEDKQTREQLHSISDSVLFLQEFGALMSNYSLPPPLPTYHVLLEGEGLGQSLGNFKDDLLNVCMRHVEKMCKADLSRNFIERNHMENGGDHRYVNNYTNSFGGEWSAPDTMKRYSMYLTPKGGVRTSYQPSSPGRFTKETTQKNFNNLYGTKGNYTSRVWEYSSSIQNSDNDLPVVQGSSSFSLKGYPSLMRSQSPKAQPQTWKSGKQTMLSHYRPFYVNKGNGIGSNEAP
As for B1, in assay [2], the binding entry was “binds”.

B2: TRIM29 (in vitro pull-down, Supplementary Fig. 6d) (protein, UniProt Q14134 1-588)
chain: MEAADASRSNGSSPEARDARSPSGPSGSLENGTKADGKDAKTTNGHGGEAAEGKSLGSALKPGEGRSALFAGNEWRRPIIQFVESGDDKNSNYFSMDSMEGKRSPYAGLQLGAAKKPPVTFAEKGELRKSIFSESRKPTVSIMEPGETRRNSYPRADTGLFSRSKSGSEEVLCDSCIGNKQKAVKSCLVCQASFCELHLKPHLEGAAFRDHQLLEPIRDFEARKCPVHGKTMELFCQTDQTCICYLCMFQEHKNHSTVTVEEAKAEKETELSLQKEQLQLKIIEIEDEAEKWQKEKDRIKSFTTNEKAILEQNFRDLVRDLEKQKEEVRAALEQREQDAVDQVKVIMDALDERAKVLHEDKQTREQLHSISDSVLFLQEFGALMSNYSLPPPLPTYHVLLEGEGLGQSLGNFKDDLLNVCMRHVEKMCKADLSRNFIERNHMENGGDHRYVNNYTNSFGGEWSAPDTMKRYSMYLTPKGGVRTSYQPSSPGRFTKETTQKNFNNLYGTKGNYTSRVWEYSSSIQNSDNDLPVVQGSSSFSLKGYPSLMRSQSPKAQPQTWKSGKQTMLSHYRPFYVNKGNGIGSNEAP
For B2, the binding result in assay [3] is on record as “binds”.
